Among the data in PMC5717197, “Mechanistic insight into TRIP13-catalyzed Mad2 structural transition and spindle checkpoint silencing” (Nature Communications, 2017) are binding values, retold here.

No constants are given. Whether binding was seen depends on the method and setting.

The assay concerns the target TRIP13 G320A (human) (UniProt Q15645). As to the kind of experiment: condition: only in the absence of ATP (nucleotide-free); AUC; sedimentation velocity, 4 °C, in the absence of ATP, several concentrations; 10 mM HEPES pH 7.4, 300 mM NaCl, 5 mM MgCl2, 1.357 M glycerol, 1 mM TCEP; both purified.

B1: TRIP13 G320A (enzyme, human, UniProt Q15645 1-432, looked up)
chain: MDEAVGDLKQALPCVAESPTVHVEVHQRGSSTAKKEDINLSVRKLLNRHNIVFGDYTWTEFDEPFLTRNVQSVSIIDTELKVKDSQPIDLSACTVALHIFQLNEDGPSSENLEEETENIIAANHWVLPAAEFHGLWDSLVYDVEVKSHLLDYVMTTLLFSDKNVNSNLITWNRVVLLHGPPGTGKTSLCKALAQKLTIRLSSRYRYGQLIEINSHSLFSKWFSESGKLVTKMFQKIQDLIDDKDALVFVLIDEVESLTAARNACRAGTEPSDAIRVVNAVLTQIDQIKRHSNVVILTTSNITEKIDVAFVDRADIKQYIAPPSAAAIFKIYLSCLEELMKCQIIYPRQQLLTLRELEMIGFIENNVSKLSLLLNDISRKSEGLSGRVLRKLPFLAHALYVQAPTVTIEGFLQALSLAVDKQFEERKKLAAYI
notes: TRIP13, human; source: E. coli BL21 (DE3), purified (Ni-NTA, TEV, Resource Q, Superdex 200); not shown: His6, N-terminal, cleaved
In the case of B1, the binding result is on record as “no binding”.
